Test results from the supplement of paper PMC10849652.
This is one part of the list. Residues, ends and D or L forms follow the SMILES beside them. *: point of attachment. Cbz = O=C(OCc1ccccc1)*

The chains behind the UniProt entries cited, without tags or fusion partners. Where a name states a change or a piece, a line headed by the entry shows the natural chain unless it says otherwise.
UniProt Q99755: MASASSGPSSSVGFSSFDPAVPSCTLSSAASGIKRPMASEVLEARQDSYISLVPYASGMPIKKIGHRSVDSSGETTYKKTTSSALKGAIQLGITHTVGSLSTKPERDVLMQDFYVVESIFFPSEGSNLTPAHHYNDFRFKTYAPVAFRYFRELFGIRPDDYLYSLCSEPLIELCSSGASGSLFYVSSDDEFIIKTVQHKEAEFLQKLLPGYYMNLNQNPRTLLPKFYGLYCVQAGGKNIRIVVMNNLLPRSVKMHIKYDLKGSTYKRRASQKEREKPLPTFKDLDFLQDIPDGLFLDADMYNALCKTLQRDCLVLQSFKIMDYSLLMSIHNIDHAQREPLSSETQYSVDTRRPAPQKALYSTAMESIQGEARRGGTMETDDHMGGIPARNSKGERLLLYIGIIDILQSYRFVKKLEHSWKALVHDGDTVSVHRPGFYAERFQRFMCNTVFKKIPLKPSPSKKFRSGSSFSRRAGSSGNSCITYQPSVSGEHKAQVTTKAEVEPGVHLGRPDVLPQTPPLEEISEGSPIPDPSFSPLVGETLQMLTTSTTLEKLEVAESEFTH
UniProt O75925, whole entry, looked up: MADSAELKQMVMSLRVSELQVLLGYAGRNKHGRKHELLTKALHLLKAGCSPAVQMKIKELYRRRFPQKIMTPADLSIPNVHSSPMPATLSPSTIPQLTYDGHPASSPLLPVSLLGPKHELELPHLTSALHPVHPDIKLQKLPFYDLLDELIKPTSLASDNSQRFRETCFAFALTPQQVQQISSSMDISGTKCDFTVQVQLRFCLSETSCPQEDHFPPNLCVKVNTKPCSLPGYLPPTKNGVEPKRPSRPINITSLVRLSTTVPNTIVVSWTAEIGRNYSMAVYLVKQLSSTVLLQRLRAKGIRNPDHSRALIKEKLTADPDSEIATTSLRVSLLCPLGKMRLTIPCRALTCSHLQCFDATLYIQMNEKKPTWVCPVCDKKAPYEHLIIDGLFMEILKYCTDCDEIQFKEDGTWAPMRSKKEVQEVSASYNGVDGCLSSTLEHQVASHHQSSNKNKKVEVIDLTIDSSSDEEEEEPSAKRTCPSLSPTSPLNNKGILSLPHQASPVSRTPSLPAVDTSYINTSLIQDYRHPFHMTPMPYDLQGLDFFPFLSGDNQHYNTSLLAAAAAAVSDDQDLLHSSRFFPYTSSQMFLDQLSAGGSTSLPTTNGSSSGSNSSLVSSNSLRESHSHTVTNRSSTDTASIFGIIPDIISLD
UniProt Q8WUB8: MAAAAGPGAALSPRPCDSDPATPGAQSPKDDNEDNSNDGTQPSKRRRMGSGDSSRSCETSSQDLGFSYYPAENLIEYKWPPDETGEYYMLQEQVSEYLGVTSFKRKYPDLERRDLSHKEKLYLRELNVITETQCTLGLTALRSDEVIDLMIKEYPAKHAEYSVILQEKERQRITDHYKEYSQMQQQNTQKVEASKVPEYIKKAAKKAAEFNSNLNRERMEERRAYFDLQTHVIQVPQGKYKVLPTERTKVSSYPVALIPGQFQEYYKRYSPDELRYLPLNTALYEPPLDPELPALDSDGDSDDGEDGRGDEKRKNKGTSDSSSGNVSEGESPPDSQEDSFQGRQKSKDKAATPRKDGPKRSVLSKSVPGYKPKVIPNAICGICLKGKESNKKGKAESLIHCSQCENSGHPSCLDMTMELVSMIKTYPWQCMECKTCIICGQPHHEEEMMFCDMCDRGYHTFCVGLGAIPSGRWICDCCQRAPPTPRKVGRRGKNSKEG
UniProt Q14442: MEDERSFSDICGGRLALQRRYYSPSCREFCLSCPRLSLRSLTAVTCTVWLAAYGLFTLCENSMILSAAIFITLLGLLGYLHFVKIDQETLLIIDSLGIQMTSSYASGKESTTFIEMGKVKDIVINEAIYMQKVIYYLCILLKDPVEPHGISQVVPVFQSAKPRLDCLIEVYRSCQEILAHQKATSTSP
UniProt P0C869: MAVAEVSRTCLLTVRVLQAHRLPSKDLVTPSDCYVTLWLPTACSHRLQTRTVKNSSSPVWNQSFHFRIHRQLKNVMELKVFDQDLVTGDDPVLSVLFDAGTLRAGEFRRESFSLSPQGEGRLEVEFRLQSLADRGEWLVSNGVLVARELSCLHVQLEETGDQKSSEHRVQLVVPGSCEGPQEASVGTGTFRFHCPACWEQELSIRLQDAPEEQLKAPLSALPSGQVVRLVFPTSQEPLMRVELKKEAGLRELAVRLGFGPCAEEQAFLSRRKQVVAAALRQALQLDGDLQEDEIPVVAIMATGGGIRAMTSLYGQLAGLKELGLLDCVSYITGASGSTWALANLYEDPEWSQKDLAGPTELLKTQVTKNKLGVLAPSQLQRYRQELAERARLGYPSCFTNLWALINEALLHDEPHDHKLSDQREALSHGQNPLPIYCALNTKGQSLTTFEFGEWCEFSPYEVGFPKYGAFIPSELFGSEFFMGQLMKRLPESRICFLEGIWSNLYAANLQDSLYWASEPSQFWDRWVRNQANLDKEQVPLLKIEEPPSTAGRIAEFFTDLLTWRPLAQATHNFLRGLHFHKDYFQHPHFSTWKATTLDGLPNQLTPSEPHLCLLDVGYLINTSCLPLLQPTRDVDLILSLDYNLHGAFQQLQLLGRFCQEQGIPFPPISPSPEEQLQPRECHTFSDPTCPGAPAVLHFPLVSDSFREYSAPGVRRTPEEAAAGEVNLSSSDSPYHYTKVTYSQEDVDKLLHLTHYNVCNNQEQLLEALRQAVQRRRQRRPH
UniProt P08567: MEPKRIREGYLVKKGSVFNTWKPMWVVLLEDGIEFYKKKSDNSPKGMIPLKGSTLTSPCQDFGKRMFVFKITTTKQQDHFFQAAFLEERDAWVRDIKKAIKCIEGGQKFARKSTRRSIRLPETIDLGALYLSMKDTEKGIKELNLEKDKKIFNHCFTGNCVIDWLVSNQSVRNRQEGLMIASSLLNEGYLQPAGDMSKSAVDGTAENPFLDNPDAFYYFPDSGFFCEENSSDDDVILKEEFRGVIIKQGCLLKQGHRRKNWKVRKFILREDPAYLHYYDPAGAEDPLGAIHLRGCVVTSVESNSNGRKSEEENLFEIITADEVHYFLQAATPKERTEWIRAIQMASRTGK
UniProt Q99640: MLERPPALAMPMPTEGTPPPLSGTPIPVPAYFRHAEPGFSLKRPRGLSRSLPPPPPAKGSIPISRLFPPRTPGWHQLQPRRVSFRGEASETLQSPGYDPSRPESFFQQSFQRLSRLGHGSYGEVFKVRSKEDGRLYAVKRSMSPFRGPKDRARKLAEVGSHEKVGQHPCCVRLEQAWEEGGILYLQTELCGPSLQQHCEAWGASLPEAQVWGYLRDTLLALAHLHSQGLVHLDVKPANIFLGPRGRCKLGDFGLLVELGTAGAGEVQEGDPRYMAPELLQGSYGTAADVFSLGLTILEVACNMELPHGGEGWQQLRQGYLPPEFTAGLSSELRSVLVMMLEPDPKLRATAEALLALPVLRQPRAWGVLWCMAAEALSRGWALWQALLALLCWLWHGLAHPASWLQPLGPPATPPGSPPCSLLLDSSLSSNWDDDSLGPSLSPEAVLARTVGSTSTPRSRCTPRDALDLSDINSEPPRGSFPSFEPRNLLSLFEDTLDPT
UniProt P11309, whole entry, looked up: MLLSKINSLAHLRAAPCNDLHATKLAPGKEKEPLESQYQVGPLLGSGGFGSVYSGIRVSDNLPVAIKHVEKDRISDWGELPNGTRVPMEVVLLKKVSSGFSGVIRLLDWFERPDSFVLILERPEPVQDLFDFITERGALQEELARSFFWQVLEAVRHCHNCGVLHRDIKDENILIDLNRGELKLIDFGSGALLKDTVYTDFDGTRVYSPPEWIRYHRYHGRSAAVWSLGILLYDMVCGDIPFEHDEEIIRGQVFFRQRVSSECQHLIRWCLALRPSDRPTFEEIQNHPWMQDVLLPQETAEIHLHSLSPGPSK
UniProt Q8N2A8: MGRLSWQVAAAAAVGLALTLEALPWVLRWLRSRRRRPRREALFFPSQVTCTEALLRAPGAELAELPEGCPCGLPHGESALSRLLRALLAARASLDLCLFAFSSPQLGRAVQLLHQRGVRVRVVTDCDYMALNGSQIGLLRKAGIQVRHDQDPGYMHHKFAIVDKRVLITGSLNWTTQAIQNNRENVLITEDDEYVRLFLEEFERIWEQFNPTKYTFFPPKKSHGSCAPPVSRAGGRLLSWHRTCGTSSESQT
UniProt Q99569: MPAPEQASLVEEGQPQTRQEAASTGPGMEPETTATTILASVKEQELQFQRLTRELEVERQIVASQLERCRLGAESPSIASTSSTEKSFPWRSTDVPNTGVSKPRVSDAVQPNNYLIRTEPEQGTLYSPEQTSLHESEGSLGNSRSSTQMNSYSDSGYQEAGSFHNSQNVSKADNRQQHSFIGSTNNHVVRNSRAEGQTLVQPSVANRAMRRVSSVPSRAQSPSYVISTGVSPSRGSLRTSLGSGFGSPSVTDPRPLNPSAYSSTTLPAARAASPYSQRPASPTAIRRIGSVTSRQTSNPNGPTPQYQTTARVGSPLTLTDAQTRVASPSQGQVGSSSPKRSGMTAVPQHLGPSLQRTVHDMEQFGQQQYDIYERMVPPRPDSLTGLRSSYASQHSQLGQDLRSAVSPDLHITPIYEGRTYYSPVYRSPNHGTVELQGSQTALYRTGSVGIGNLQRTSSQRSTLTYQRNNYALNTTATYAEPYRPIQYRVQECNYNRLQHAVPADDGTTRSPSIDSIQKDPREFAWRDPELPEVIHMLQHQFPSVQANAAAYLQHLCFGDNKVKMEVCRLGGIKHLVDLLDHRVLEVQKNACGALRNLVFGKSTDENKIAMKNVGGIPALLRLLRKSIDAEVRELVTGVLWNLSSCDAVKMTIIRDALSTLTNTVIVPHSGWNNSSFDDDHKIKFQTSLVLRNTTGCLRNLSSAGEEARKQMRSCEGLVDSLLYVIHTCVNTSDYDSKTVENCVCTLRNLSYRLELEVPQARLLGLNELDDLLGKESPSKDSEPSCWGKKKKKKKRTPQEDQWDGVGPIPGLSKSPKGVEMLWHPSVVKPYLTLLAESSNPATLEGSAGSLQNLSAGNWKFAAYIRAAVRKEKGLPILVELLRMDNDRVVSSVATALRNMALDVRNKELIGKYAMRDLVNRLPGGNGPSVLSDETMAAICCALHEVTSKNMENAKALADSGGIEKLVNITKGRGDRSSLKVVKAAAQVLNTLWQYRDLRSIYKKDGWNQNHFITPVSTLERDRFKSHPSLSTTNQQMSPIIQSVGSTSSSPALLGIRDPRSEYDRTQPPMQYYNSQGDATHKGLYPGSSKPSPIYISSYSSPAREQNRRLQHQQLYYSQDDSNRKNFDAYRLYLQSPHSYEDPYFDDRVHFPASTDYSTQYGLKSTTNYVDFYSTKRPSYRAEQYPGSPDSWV
UniProt P60673: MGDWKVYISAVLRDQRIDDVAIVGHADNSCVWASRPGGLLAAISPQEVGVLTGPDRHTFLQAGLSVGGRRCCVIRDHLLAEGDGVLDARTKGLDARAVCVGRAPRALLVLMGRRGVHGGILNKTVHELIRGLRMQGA
UniProt Q96CS7: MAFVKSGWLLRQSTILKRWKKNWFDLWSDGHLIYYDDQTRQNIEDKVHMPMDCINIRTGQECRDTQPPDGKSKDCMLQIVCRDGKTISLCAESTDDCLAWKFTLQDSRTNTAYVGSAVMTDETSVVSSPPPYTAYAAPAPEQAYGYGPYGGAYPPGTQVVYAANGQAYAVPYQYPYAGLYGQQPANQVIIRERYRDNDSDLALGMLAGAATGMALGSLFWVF

Tests used:
Assay in all cases: log2 fold change, soluble protein after heating vs DMSO (PISA); higher = thermal stabilisation; K562 cells, 10 uM, 30 min; active = over 0.2 and 3.5 SD of the protein, either way, in both replicates (recomputed)
IRAK-1-4 Inhibitor I = compound: C1COCCN1CCN2C3=CC=CC=C3N=C2NC(=O)C4=CC(=CC=C4)[N+](=O)[O-] [IRAK-1-4 Inhibitor I]
Procedure, shortened: (§1)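 Soluble protein was quantified by TMTpro 16plex LC-MS/MS after channel sums were equalised. It was obtained as the supernatant after 21,000xg for 90 min from pooled aliquots of K562 cells (2×10^6 cells/mL, 10 μM compound, 30 min) heated for 3 min across 48°C-58°C and extracted in PBS with 0.5% NP-40 at 4°C. Thermal stability values are relative to control samples and come from duplicates. They are given as log2 fold changes.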

ibrutinib = compound: C=CC(=O)N1CCC[C@@H](n2nc(-c3ccc(Oc4ccccc4)cc3)c3c(N)ncnc32)C1 [ibrutinib]
Procedure, shortened: as §1

[1] = compound: CC(C)C1=C2N=C(C=C(N2N=C1)NCC3=CC=CC=C3)NCCCCCCN
Procedure, shortened: as §1

pinometostat = compound: CC(C)N(C[C@H]1O[C@@H](n2cnc3c(N)ncnc32)[C@H](O)[C@@H]1O)[C@H]1C[C@@H](CCc2nc3cc(C(C)(C)C)ccc3[nH]2)C1 [pinometostat]
Procedure, shortened: as §1

[2] = compound: CC1=C(C(CC(=O)N1)C2=CC=C(C=C2)C(F)(F)F)C(=O)NC3=C(C=C4C(=C3)C=NN4)F
Procedure, shortened: as §1

[3] = compound: CC1=C(C=C(C=C1)NC(=O)C2=CC(=CC=C2)C(C)(C)C#N)NC3=CC4=C(C=C3)N=CN(C4=O)C
Procedure, shortened: as §1

[4] = compound: CC1=NC(=CC=C1)C2=C(N=C(N2)C(C)(C)C)C3=CC4=NC=CN=C4C=C3
Procedure, shortened: as §1

vemurafenib = compound: CCCS(=O)(=O)Nc1ccc(F)c(C(=O)c2c[nH]c3ncc(-c4ccc(Cl)cc4)cc23)c1F [vemurafenib]
Procedure, shortened: as §1

givinostat = compound: CCN(CC)Cc1ccc2cc(COC(=O)Nc3ccc(C(=O)NO)cc3)ccc2c1 [givinostat]
Procedure, shortened: as §1

barasertib = compound: CCN(CCCOc1ccc2c(Nc3cc(CC(=O)Nc4cccc(F)c4)[nH]n3)ncnc2c1)CCOP(=O)(O)O [barasertib]
Procedure, shortened: as §1

[5] = compound: CC1=CC=C(C=C1)SC2=C3C=C(SC3=CN=C2)C(=O)N
Procedure, shortened: as §1

[6] = compound: CCCS(=O)(=O)Nc1ccc(F)c(C(=O)c2c[nH]c3ncc(Cl)cc23)c1F
Procedure, shortened: as §1

[7] = compound: CC(=O)c1cnc2ccc(-c3cc(Cl)c(O)c(Cl)c3)nc2c1N[C@H]1CC[C@H](CN(C)C)CC1
Procedure, shortened: as §1

ralimetinib = compound: CC(C)(C)Cn1c(N)nc2ccc(-c3[nH]c(C(C)(C)C)nc3-c3ccc(F)cc3)nc21 [ralimetinib]
Procedure, shortened: as §1

[8] = compound: CC(C)(O)CC(=O)NCCn1ccc2ncnc(Nc3ccc(Oc4cccc(C(F)(F)F)c4)c(Cl)c3)c21
Procedure, shortened: as §1

[9] = compound: CC(C)C[C@@H](C=O)NC(=O)[C@H](CC(C)C)NC(=O)[C@H](CC(C)C)NC(=O)OCc1ccccc1
Procedure, shortened: as §1

[10] = compound: CC1=C(C2=C(C=C1)C(=O)C3=CC=CC=C3N2CCCN)C
Procedure, shortened: as §1

[11] = compound: CC1=C(C=C(C=C1)NC(=O)C2=CC(=CC=C2)N(C)C)NC(=O)C3=CC=C(C=C3)O
Procedure, shortened: as §1

Nexturastat A = compound: CCCCN(Cc1ccc(C(=O)NO)cc1)C(=O)Nc1ccccc1 [Nexturastat A]
Procedure, shortened: as §1

[12] = compound: CCCc1cc(C)[nH]c(=O)c1CNC(=O)c1cc(-c2ccnc(N3CCN(C)CC3)c2)cc2c1cnn2C(C)C
Procedure, shortened: as §1

Target	log2 fold change (IRAK-1-4 Inhibitor I)	log2 fold change (ibrutinib)	log2 fold change [1]	log2 fold change (pinometostat)	log2 fold change [2]	log2 fold change [3]	log2 fold change [4]	log2 fold change (vemurafenib)	log2 fold change (givinostat)	log2 fold change (barasertib)	log2 fold change [5]	log2 fold change [6]	log2 fold change [7]	log2 fold change (ralimetinib)	log2 fold change [8]	log2 fold change [9]	log2 fold change [10]	log2 fold change [11]	log2 fold change (Nexturastat A)	log2 fold change [12]
PIGM (UniProt Q9H3S5)	inactive: 0.022	inactive: 0.06	inactive: 0.018	inactive: 0.083	inactive: 0.006	inactive: 0.075	inactive: -0.052	inactive: -0.054	inactive: 0.1	inactive: 0.089										
PFKM (UniProt F8VTQ3)	inactive: 0.009	inactive: 0		inactive: -0.055			inactive: 0.027			inactive: -0.051	inactive: -0.406	inactive: -0.45								
PIP5K1A (UniProt Q99755)	inactive: -0.082	inactive: 0.068		inactive: 0.197	inactive: 0.185	inactive: -0.157	inactive: -0.152	inactive: -0.04		inactive: 0.127	inactive: -0.083	inactive: 0.007	inactive: 0.262	inactive: 0.045	inactive: -0.016	inactive: 0.081	inactive: -0.063	inactive: 0.154	inactive: 0.122	inactive: -0.06
PHLDB1 isoform 2 (UniProt Q86UU1)	inactive: 0.014	inactive: -0.055	inactive: -0.018	inactive: -0.011			inactive: 0.047	inactive: 0.031	inactive: -0.012	inactive: 0.117	inactive: 0.047	inactive: 0.016	active: -0.832	inactive: 0.005	inactive: -0.053	inactive: 0.016	inactive: 0.118	inactive: 0.01	inactive: 0.045	inactive: 0.14
PIAS1 isoform 2 (UniProt O75925)	inactive: 0.057	inactive: -0.641		inactive: 0.076			inactive: 0.138			inactive: 0.154	inactive: -0.025	inactive: 0.005		inactive: 0.056		inactive: 0.19		inactive: -0.078		
PHF10 (UniProt Q8WUB8)	inactive: -0.011	inactive: -0.199	inactive: -0.163	inactive: 0.026		inactive: 0.072	inactive: -0.099	inactive: 0.01	inactive: 0	inactive: -0.042	inactive: -0.047	inactive: 0.035	inactive: -0.096	inactive: 0.012	inactive: 0.169	inactive: -0.016	inactive: -0.083	inactive: 0.045	inactive: 0.179	
PIGH (UniProt Q14442)	inactive: -0.207	inactive: 0.022	inactive: 0.014	inactive: 0.139			inactive: 0	inactive: 0	inactive: -0.011	inactive: -0.219	inactive: 0.027	inactive: -0.025	inactive: -0.004	inactive: -0.017	inactive: 0.023	inactive: -0.004	inactive: 0.096	inactive: 0.001	inactive: 0.141	inactive: -0.069
PLA2G4B isoform 6 (UniProt P0C869)	inactive: -0.078	inactive: -0.09		inactive: 0.004	inactive: -0.103	inactive: 0.136	inactive: -0.021	inactive: 0.027		inactive: 0.039	inactive: -0.021	inactive: 0.086	inactive: 0	inactive: 0.155		inactive: 0.02	inactive: 0.126	inactive: 0.019		inactive: -0.092
PLEK (UniProt P08567)	inactive: -0.187		inactive: 0.09	inactive: -0.087			inactive: -0.047	inactive: 0.125	inactive: -0.051		inactive: 0.273	inactive: -0.057		inactive: -0.114		inactive: 0.057		inactive: -0.03		
PIGO (UniProt Q8TEQ8)	inactive: -0.055	inactive: -0.016	inactive: -0.202	inactive: 0.023	inactive: 0.026		inactive: 0	inactive: 0.009	inactive: -0.029	inactive: -0.006					inactive: -0.066		inactive: -0.031		inactive: 0.068	inactive: -0.162
PKMYT1 (UniProt Q99640)			inactive: 0.145			inactive: 0.044			inactive: -0.055					inactive: 0.331	inactive: 0.123	inactive: 0.377		inactive: 0.049	inactive: 0.254	
PIM1 isoform 2 (UniProt P11309)																				inactive: -0.566
PLD6 (UniProt Q8N2A8)	inactive: 0.217			inactive: -0.012		inactive: -0.003	inactive: -0.136	inactive: 0.121			inactive: -0.252	inactive: -0.135			inactive: -0.021				inactive: 0.147	
PKP4 (UniProt Q99569)			inactive: -0.027						inactive: -0.199					inactive: 0.152	inactive: 0.084	inactive: -0.09		inactive: -0.044	inactive: 0.191	
PFN3 (UniProt P60673)						inactive: -0.275		inactive: 0.4			inactive: -0.586	inactive: -0.102	inactive: -0.569		inactive: -0.578		inactive: 0.066		inactive: -0.369	inactive: 0.206
PLEKHB2 isoform 2 (UniProt Q96CS7)		inactive: 0.003								inactive: -0.087	inactive: -0.014	inactive: -0.041								

4 consecutive records already listed:
Target	log2 fold change (IRAK-1-4 Inhibitor I)	log2 fold change (ibrutinib)	log2 fold change [1]	log2 fold change (pinometostat)	log2 fold change [2]	log2 fold change [3]	log2 fold change [4]	log2 fold change (vemurafenib)	log2 fold change (givinostat)	log2 fold change (barasertib)	log2 fold change [5]	log2 fold change [6]	log2 fold change [7]	log2 fold change (ralimetinib)	log2 fold change [8]	log2 fold change [9]	log2 fold change [10]	log2 fold change [11]	log2 fold change (Nexturastat A)	log2 fold change [12]
PIM1 isoform 2 (UniProt P11309)																				inactive: -0.566
PLD6 (UniProt Q8N2A8)	inactive: 0.217			inactive: -0.012		inactive: -0.003	inactive: -0.136	inactive: 0.121			inactive: -0.252	inactive: -0.135			inactive: -0.021				inactive: 0.147	
PKP4 (UniProt Q99569)			inactive: -0.027						inactive: -0.199					inactive: 0.152	inactive: 0.084	inactive: -0.09		inactive: -0.044	inactive: 0.191	
PFN3 (UniProt P60673)						inactive: -0.275		inactive: 0.4			inactive: -0.586	inactive: -0.102	inactive: -0.569		inactive: -0.578		inactive: 0.066		inactive: -0.369	inactive: 0.206
